# The supplement of paper PMC11438910
# The list shows a part of the results. Most of these values are background signal.
# Key:
# Test in all cases: fluorescence intensity of antibody binding to polysaccharide-coupled beads; higher = stronger binding
# [1] = target: pneumococcal polysaccharide Pn9N
# [2] = target: pneumococcal polysaccharide Pn9V
# [3] = target: pneumococcal polysaccharide C-Poly-1
# [4] = target: pneumococcal polysaccharide C-Poly-2
# [5] = target: pneumococcal polysaccharide Pn1
# [6] = target: pneumococcal polysaccharide Pn10A
# [7] = target: pneumococcal polysaccharide Pn10B
# [8] = target: pneumococcal polysaccharide Pn10C
# [9] = target: pneumococcal polysaccharide Pn10F
# [10] = target: pneumococcal polysaccharide Pn11A
# [11] = target: pneumococcal polysaccharide Pn11B
# [12] = target: pneumococcal polysaccharide Pn11C
# [13] = target: pneumococcal polysaccharide Pn11D
# [14] = target: pneumococcal polysaccharide Pn11F
# [15] = target: pneumococcal polysaccharide Pn12A
# [16] = target: pneumococcal polysaccharide Pn12B
# [17] = target: pneumococcal polysaccharide Pn12F
# [18] = target: pneumococcal polysaccharide Pn13
# [19] = target: pneumococcal polysaccharide Pn14
# [20] = target: pneumococcal polysaccharide Pn15A
# [21] = target: pneumococcal polysaccharide Pn15B
# [22] = antibody concentration 2337.65 ng/mL
# [23] = antibody concentration 12500 ng/mL
# [24] = antibody concentration 0.1 ng/mL
# [25] = antibody concentration 0.534724 ng/mL
# [26] = antibody concentration 2.8593 ng/mL
# [27] = antibody concentration 15.2894 ng/mL
# [28] = antibody concentration 81.7561 ng/mL
# [29] = antibody concentration 437.17 ng/mL
binder,measurement,setting,value
4-127.4 (protein) chain 1: QVQLQESGPGLVKPSETLSLTCGVSGYSISSGHGWSWIRQPPGKGLEWIGYVGGSSGNTNYNPSLKSRVTISKDTSKNQISLKLSSVTAADTAVYYCARRGISGTFGLVDYWGQGVLVTVSS chain 2: QSVLTQPPSVSGAPGQRVTISCTGSSSNIGGYYVQWYQQLPGSAPKLLIYDNDQRPSGVSDRISGSRSGTSASLTITGLQSEDEADYYCQSFDSFLRGVLFGGGTRLTVL,fluorescence intensity,[1]; [22],17.5 MFI
same,fluorescence intensity,[1]; [23],24.5 MFI
same,fluorescence intensity,[2]; [24],15 MFI
same,fluorescence intensity,[2]; [25],15 MFI
same,fluorescence intensity,[2]; [26],15.5 MFI
same,fluorescence intensity,[2]; [27],15 MFI
same,fluorescence intensity,[2]; [28],14.5 MFI
same,fluorescence intensity,[2]; [29],15 MFI
same,fluorescence intensity,[2]; [22],17.5 MFI
same,fluorescence intensity,[2]; [23],21.5 MFI
4-173.4 (protein) chain 1: QLQLQESGPGLVKPSETLSLTCAVSGGSISSHYWSWIRQPPGKGLEWIGRFSAGGGSTDYNPSLKSRVTISTDTSKNQFTLNLNSVTAADTAVYYCTRGSYTSDYWGQGVLVTVSS chain 2: QAALTQSPSVSGSPGQSVTISCTGTSSDIGGYIRVSWYQQHPGKAPKLMIYEVSKRPSGVSDRFSGSKSGNTASLTISGLQAEDEADYYCFSYARGDTVLLGGGTRLTVL,fluorescence intensity,[3]; [24],27.8 MFI
same,fluorescence intensity,[3]; [25],26 MFI
same,fluorescence intensity,[3]; [26],25.8 MFI
same,fluorescence intensity,[3]; [27],25 MFI
same,fluorescence intensity,[3]; [28],26.5 MFI
same,fluorescence intensity,[3]; [29],30 MFI
same,fluorescence intensity,[3]; [22],36.5 MFI
same,fluorescence intensity,[3]; [23],118 MFI
same,fluorescence intensity,[4]; [24],22 MFI
same,fluorescence intensity,[4]; [25],20.5 MFI
same,fluorescence intensity,[4]; [26],21 MFI
same,fluorescence intensity,[4]; [27],21 MFI
same,fluorescence intensity,[4]; [28],23.2 MFI
same,fluorescence intensity,[4]; [29],24 MFI
same,fluorescence intensity,[4]; [22],31 MFI
same,fluorescence intensity,[4]; [23],108 MFI
same,fluorescence intensity,[5]; [24],15 MFI
same,fluorescence intensity,[5]; [25],13 MFI
same,fluorescence intensity,[5]; [26],14 MFI
same,fluorescence intensity,[5]; [27],13.2 MFI
same,fluorescence intensity,[5]; [28],13.5 MFI
same,fluorescence intensity,[5]; [29],16 MFI
same,fluorescence intensity,[5]; [22],18 MFI
same,fluorescence intensity,[5]; [23],31.8 MFI
same,fluorescence intensity,[6]; [24],25 MFI
same,fluorescence intensity,[6]; [25],27 MFI
same,fluorescence intensity,[6]; [26],25.8 MFI
same,fluorescence intensity,[6]; [27],26.2 MFI
same,fluorescence intensity,[6]; [28],26.5 MFI
same,fluorescence intensity,[6]; [29],27 MFI
same,fluorescence intensity,[6]; [22],27.5 MFI
same,fluorescence intensity,[6]; [23],35 MFI
same,fluorescence intensity,[7]; [24],21.8 MFI
same,fluorescence intensity,[7]; [25],24 MFI
same,fluorescence intensity,[7]; [26],22.5 MFI
same,fluorescence intensity,[7]; [27],22.8 MFI
same,fluorescence intensity,[7]; [28],24.5 MFI
same,fluorescence intensity,[7]; [29],22 MFI
same,fluorescence intensity,[7]; [22],22.8 MFI
same,fluorescence intensity,[7]; [23],30.2 MFI
same,fluorescence intensity,[8]; [24],15 MFI
same,fluorescence intensity,[8]; [25],17 MFI
same,fluorescence intensity,[8]; [26],17 MFI
same,fluorescence intensity,[8]; [27],16.5 MFI
same,fluorescence intensity,[8]; [28],15 MFI
same,fluorescence intensity,[8]; [29],17.5 MFI
same,fluorescence intensity,[8]; [22],18.5 MFI
same,fluorescence intensity,[8]; [23],19.5 MFI
same,fluorescence intensity,[9]; [24],19.2 MFI
same,fluorescence intensity,[9]; [25],18.5 MFI
same,fluorescence intensity,[9]; [26],19.5 MFI
same,fluorescence intensity,[9]; [27],17.8 MFI
same,fluorescence intensity,[9]; [28],22 MFI
same,fluorescence intensity,[9]; [29],19.5 MFI
same,fluorescence intensity,[9]; [22],19.5 MFI
same,fluorescence intensity,[9]; [23],21.8 MFI
same,fluorescence intensity,[10]; [24],29 MFI
same,fluorescence intensity,[10]; [25],29 MFI
same,fluorescence intensity,[10]; [26],27.2 MFI
same,fluorescence intensity,[10]; [27],29.8 MFI
same,fluorescence intensity,[10]; [28],28.8 MFI
same,fluorescence intensity,[10]; [29],34 MFI
same,fluorescence intensity,[10]; [22],35 MFI
same,fluorescence intensity,[10]; [23],49.5 MFI
same,fluorescence intensity,[11]; [24],25.2 MFI
same,fluorescence intensity,[11]; [25],26.2 MFI
same,fluorescence intensity,[11]; [26],23.5 MFI
same,fluorescence intensity,[11]; [27],28.2 MFI
same,fluorescence intensity,[11]; [28],28.5 MFI
same,fluorescence intensity,[11]; [29],27 MFI
same,fluorescence intensity,[11]; [22],26.5 MFI
same,fluorescence intensity,[11]; [23],32 MFI
same,fluorescence intensity,[12]; [24],19.2 MFI
same,fluorescence intensity,[12]; [25],22.2 MFI
same,fluorescence intensity,[12]; [26],21.2 MFI
same,fluorescence intensity,[12]; [27],22.8 MFI
same,fluorescence intensity,[12]; [28],24 MFI
same,fluorescence intensity,[12]; [29],21.8 MFI
same,fluorescence intensity,[12]; [22],25 MFI
same,fluorescence intensity,[12]; [23],69 MFI
same,fluorescence intensity,[13]; [24],23 MFI
same,fluorescence intensity,[13]; [25],22.5 MFI
same,fluorescence intensity,[13]; [26],21.8 MFI
same,fluorescence intensity,[13]; [27],23.2 MFI
same,fluorescence intensity,[13]; [28],22.5 MFI
same,fluorescence intensity,[13]; [29],21.5 MFI
same,fluorescence intensity,[13]; [22],25.5 MFI
same,fluorescence intensity,[13]; [23],45 MFI
same,fluorescence intensity,[14]; [24],13.5 MFI
same,fluorescence intensity,[14]; [25],13 MFI
same,fluorescence intensity,[14]; [26],14.8 MFI
same,fluorescence intensity,[14]; [27],14.5 MFI
same,fluorescence intensity,[14]; [28],15.5 MFI
same,fluorescence intensity,[14]; [29],15.8 MFI
same,fluorescence intensity,[14]; [22],15.8 MFI
same,fluorescence intensity,[14]; [23],18 MFI
same,fluorescence intensity,[15]; [24],13.5 MFI
same,fluorescence intensity,[15]; [25],16 MFI
same,fluorescence intensity,[15]; [26],15.5 MFI
same,fluorescence intensity,[15]; [27],12.8 MFI
same,fluorescence intensity,[15]; [28],16 MFI
same,fluorescence intensity,[15]; [29],14.8 MFI
same,fluorescence intensity,[15]; [22],17 MFI
same,fluorescence intensity,[15]; [23],25 MFI
same,fluorescence intensity,[16]; [24],15 MFI
same,fluorescence intensity,[16]; [25],15.5 MFI
same,fluorescence intensity,[16]; [26],14 MFI
same,fluorescence intensity,[16]; [27],15.2 MFI
same,fluorescence intensity,[16]; [28],16 MFI
same,fluorescence intensity,[16]; [29],16.5 MFI
same,fluorescence intensity,[16]; [22],17.8 MFI
same,fluorescence intensity,[16]; [23],25 MFI
same,fluorescence intensity,[17]; [24],18 MFI
same,fluorescence intensity,[17]; [25],19.8 MFI
same,fluorescence intensity,[17]; [26],19.5 MFI
same,fluorescence intensity,[17]; [27],18.5 MFI
same,fluorescence intensity,[17]; [28],19 MFI
same,fluorescence intensity,[17]; [29],22.5 MFI
same,fluorescence intensity,[17]; [22],22 MFI
same,fluorescence intensity,[17]; [23],36.5 MFI
same,fluorescence intensity,[18]; [24],19 MFI
same,fluorescence intensity,[18]; [25],18 MFI
same,fluorescence intensity,[18]; [26],19 MFI
same,fluorescence intensity,[18]; [27],19.2 MFI
same,fluorescence intensity,[18]; [28],18.5 MFI
same,fluorescence intensity,[18]; [29],17.5 MFI
same,fluorescence intensity,[18]; [22],20 MFI
same,fluorescence intensity,[18]; [23],25 MFI
same,fluorescence intensity,[19]; [24],13.5 MFI
same,fluorescence intensity,[19]; [25],16 MFI
same,fluorescence intensity,[19]; [26],14.8 MFI
same,fluorescence intensity,[19]; [27],14.8 MFI
same,fluorescence intensity,[19]; [28],15.5 MFI
same,fluorescence intensity,[19]; [29],17.5 MFI
same,fluorescence intensity,[19]; [22],22.5 MFI
same,fluorescence intensity,[19]; [23],83.2 MFI
same,fluorescence intensity,[20]; [24],12.5 MFI
same,fluorescence intensity,[20]; [25],12 MFI
same,fluorescence intensity,[20]; [26],12.5 MFI
same,fluorescence intensity,[20]; [27],13 MFI
same,fluorescence intensity,[20]; [28],11.8 MFI
same,fluorescence intensity,[20]; [29],13.5 MFI
same,fluorescence intensity,[20]; [22],13 MFI
same,fluorescence intensity,[20]; [23],14 MFI
same,fluorescence intensity,[21]; [24],18.5 MFI
same,fluorescence intensity,[21]; [25],18.5 MFI
same,fluorescence intensity,[21]; [26],17 MFI
same,fluorescence intensity,[21]; [27],18.5 MFI
same,fluorescence intensity,[21]; [28],18.2 MFI
same,fluorescence intensity,[21]; [29],22.5 MFI

# Seven entries from above, bar-delimited:
binder | measurement | setting | value
4-173.4 (protein) chain 1: QLQLQESGPGLVKPSETLSLTCAVSGGSISSHYWSWIRQPPGKGLEWIGRFSAGGGSTDYNPSLKSRVTISTDTSKNQFTLNLNSVTAADTAVYYCTRGSYTSDYWGQGVLVTVSS chain 2: QAALTQSPSVSGSPGQSVTISCTGTSSDIGGYIRVSWYQQHPGKAPKLMIYEVSKRPSGVSDRFSGSKSGNTASLTISGLQAEDEADYYCFSYARGDTVLLGGGTRLTVL | fluorescence intensity | [15]; [25] | 16 MFI
same | fluorescence intensity | [15]; [26] | 15.5 MFI
same | fluorescence intensity | [15]; [27] | 12.8 MFI
same | fluorescence intensity | [15]; [28] | 16 MFI
same | fluorescence intensity | [15]; [29] | 14.8 MFI
same | fluorescence intensity | [15]; [22] | 17 MFI
same | fluorescence intensity | [15]; [23] | 25 MFI
